# Where “and” joins values, the source holds several entries; their conditions need not be identical. Equal entries are not always repeated. Inconclusive means that the source gave no clear call. Such entries were picked first, then a sample of the others. Potencies of inconclusive entries are doubtful fits and often do not repeat. A structure can be active in one record and inactive in another. Calls of active or inactive are those of the source. The calls were made as follows: active = hit-call score of the fitted dose curve at least 0.9, where 1 is the maximum; inconclusive = response in the unintended direction; inactive = score below 0.9.
# The chains behind the UniProt entries cited, without tags or fusion partners. Where a name states a change or a piece, a line headed by the entry shows the natural chain unless it says otherwise.
# UniProt Q96RI1: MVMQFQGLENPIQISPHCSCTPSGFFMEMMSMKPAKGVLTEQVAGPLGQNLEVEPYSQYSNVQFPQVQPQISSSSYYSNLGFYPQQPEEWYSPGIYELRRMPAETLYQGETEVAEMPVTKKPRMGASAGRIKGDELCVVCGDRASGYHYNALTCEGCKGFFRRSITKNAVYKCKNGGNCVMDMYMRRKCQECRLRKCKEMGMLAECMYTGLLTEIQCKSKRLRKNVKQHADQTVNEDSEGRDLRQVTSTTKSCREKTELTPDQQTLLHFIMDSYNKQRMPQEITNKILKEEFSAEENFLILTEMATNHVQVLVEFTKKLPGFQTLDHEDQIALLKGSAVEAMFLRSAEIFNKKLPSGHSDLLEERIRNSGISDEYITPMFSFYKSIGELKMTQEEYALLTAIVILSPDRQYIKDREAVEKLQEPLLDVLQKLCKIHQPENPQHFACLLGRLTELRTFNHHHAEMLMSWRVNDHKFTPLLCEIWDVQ
# UniProt P19793: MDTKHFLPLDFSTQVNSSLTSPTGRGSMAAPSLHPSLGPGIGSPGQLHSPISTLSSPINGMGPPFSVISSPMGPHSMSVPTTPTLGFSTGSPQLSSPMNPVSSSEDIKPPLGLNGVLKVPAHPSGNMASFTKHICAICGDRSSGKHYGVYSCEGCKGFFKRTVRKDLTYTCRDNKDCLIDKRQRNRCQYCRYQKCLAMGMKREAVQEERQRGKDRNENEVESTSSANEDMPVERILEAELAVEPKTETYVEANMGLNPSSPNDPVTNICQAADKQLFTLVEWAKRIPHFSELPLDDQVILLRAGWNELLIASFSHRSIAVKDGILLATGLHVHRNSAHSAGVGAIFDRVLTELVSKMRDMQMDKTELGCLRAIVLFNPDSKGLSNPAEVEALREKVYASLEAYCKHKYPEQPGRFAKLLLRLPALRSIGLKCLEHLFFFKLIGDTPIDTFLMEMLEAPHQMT
# Molecular target: Bile acid receptor (Homo sapiens) (UniProt Q96RI1)
# Assay: OT_FXR_FXRSRC1_1440: Odyssey Thera (OT) 24-hour HEK293T Protein-Complementation Assay for Farnesoid X receptor/SRC-1 Co-activator (AID 2283384)
# How it was run: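 Single endpoint, analysed for increased fluorescence against DMSO controls. HEK293T cells carrying FXR and SRC-1 linked to complementary reporter halves were exposed to chemicals for 24 h before reading.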
SMILES,AC50,outcome
CC(C)(c1ccccc1)c1ccc(O)cc1,inconclusive: 88.4 µM and inconclusive: 90.9 µM and inconclusive: 91.6 µM,–
O=C(Nc1ccc2[nH]ccc2c1)c1cc2cc(F)ccc2n1Cc1cccc(F)c1,inconclusive: 26.7 µM,–
CCc1nn(C)c(C(=O)NCc2ccc(C(C)(C)C)cc2)c1Cl,inconclusive: 88.5 µM,–
CCC(C)c1cc([N+](=O)[O-])cc([N+](=O)[O-])c1O (centres undefined),–,inactive
O=[N+]([O-])c1ccc(Cl)c([N+](=O)[O-])c1,inconclusive: 23 µM,–
CC(=O)[O][Hg][c]1ccccc1,active: 0.2 µM,–
CC(C)(c1ccccc1)c1ccc(O)c(C(C)(C)c2ccccc2)c1,inconclusive: 81.1 µM,–
CC(c1ccc(O)cc1)(c1ccc(O)cc1)c1ccc(O)cc1,inconclusive: 90.4 µM,–
CCN1CCC2(CC1)COc1cc3c(cc12)N(C(=O)c1ccc(-c2ccc(-c4nnc(C)o4)cc2C)cc1)CC3,inconclusive: 21.6 µM,–
O=S1OC[C@@H]2[C@H](CO1)[C@]1(Cl)C(Cl)=C(Cl)[C@@]2(Cl)C1(Cl)Cl (some centres undefined),active: 68.1 µM,–
CCCN(CCC)c1c([N+](=O)[O-])cc(S(N)(=O)=O)cc1[N+](=O)[O-],inconclusive: 88.6 µM,–
NS(=O)(=O)C(F)(F)C(F)(F)C(F)(F)C(F)(F)C(F)(F)C(F)(F)C(F)(F)C(F)(F)F,active: 84.4 µM,–
Nc1c(Cl)cc([N+](=O)[O-])cc1Cl,inconclusive: 0.698 µM,–
CCCCCCCCn1sccc1=O,inconclusive: 96.2 µM,–
CC1(C)CN=C(NN=C(/C=C/c2ccc(C(F)(F)F)cc2)/C=C/c2ccc(C(F)(F)F)cc2)NC1,inconclusive: 50 µM,–

# Molecular target: Retinoic acid receptor RXR-alpha (Homo sapiens) (UniProt P19793)
# Assay: OT_NURR1_NURR1RXRa_0480: Odyssey Thera (OT) 8-hour HEK293T Protein Complementation Assay for Nurr1/retinoid X receptor (RXR) (AID 2283385)
# How it was run: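 Gain in fluorescent complementation signal over DMSO, measured 8 hours after chemical dosing of human kidney HEK293T cells, indicated enhanced Nurr1–RXRα association.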
SMILES,AC50,outcome
CON(C)C(=O)Nc1ccc(Cl)c(Cl)c1,inconclusive: 50 µM,inactive
CC(C)(c1ccccc1)c1ccc(O)cc1,inconclusive: 50 µM and inconclusive: 69.9 µM and inconclusive: 93.2 µM,–
O=C(Nc1ccc2[nH]ccc2c1)c1cc2cc(F)ccc2n1Cc1cccc(F)c1,inconclusive: 13.3 µM and inconclusive: 50 µM,–
CCc1nn(C)c(C(=O)NCc2ccc(C(C)(C)C)cc2)c1Cl,inconclusive: 92.6 µM and inconclusive: 80.7 µM,–
O=[N+]([O-])c1ccc(Cl)c([N+](=O)[O-])c1,inconclusive: 23.6 µM,–
CC(=O)[O][Hg][c]1ccccc1,inconclusive: 50 µM and inconclusive: 7.37 µM,–
O=S1(=O)OC(c2cc(Br)c(O)c(Br)c2)(c2cc(Br)c(O)c(Br)c2)c2ccccc21,active: 71.9 µM,–
Cc1cc(-c2ccc(N)c(C)c2)ccc1N,–,inactive
CCCCCCCCOC(=O)c1ccccc1C(=O)OCCCCCCCC,inconclusive: 1.1 µM,–
COP(=O)(OC)OC(Br)C(Cl)(Cl)Br (centres undefined),inconclusive: 50 µM and inconclusive: 19.2 µM,–
COC(=O)NC(=S)Nc1ccccc1NC(=S)NC(=O)OC,inconclusive: 22.9 µM and inconclusive: 12.7 µM,–
CCC(C)(C)c1ccc(O)cc1,–,inactive
CCCCCCCc1ccc(O)cc1,active: 50 µM,inactive
C=C(C)C(=O)[O][Sn]([CH2]CCC)([CH2]CCC)[CH2]CCC,inconclusive: 2.19 µM and inconclusive: 30 nM,–
C[C@H]1CCCC(=O)CCC/C=C/c2cc(O)cc(O)c2C(=O)O1,inconclusive: 19.7 µM,–
CC(C)(c1ccccc1)c1ccc(O)c(C(C)(C)c2ccccc2)c1,inconclusive: 18 µM and inconclusive: 50 µM,–
CC(c1ccc(O)cc1)(c1ccc(O)cc1)c1ccc(O)cc1,inconclusive: 79.9 µM,inactive
CCN1CCC2(CC1)COc1cc3c(cc12)N(C(=O)c1ccc(-c2ccc(-c4nnc(C)o4)cc2C)cc1)CC3,inconclusive: 27.7 µM and inconclusive: 26.3 µM,–
O=S1OC[C@@H]2[C@H](CO1)[C@]1(Cl)C(Cl)=C(Cl)[C@@]2(Cl)C1(Cl)Cl (some centres undefined),active: 91.8 µM,–
NS(=O)(=O)C(F)(F)C(F)(F)C(F)(F)C(F)(F)C(F)(F)C(F)(F)C(F)(F)C(F)(F)F,active: 83.3 µM,–
CC(C)N1C(=O)N(c2ccccc2)CSC1=NC(C)(C)C,active: 74.4 µM,–
